# Reference: patent publication US11806343B2, “Inhibitors of DUX4 induction for regulation of muscle function” (Sonic Master Limited, priority 2017, dated 2023)
# For at least one compound, name, drawing or mass did not settle the structure.
# System: DUX4
# Test: DUX4 expression downregulation by kinase family inhibitors (Table 1)
# Assay type: cell-based
# Conditions: downregulation of DUX4 expression, Y or N
row,Structure (SMILES),"DUX4 Effect, Y/N"
1,CN1CCN(C2CCC(n3cc(-c4ccc(Oc5ccccc5)cc4)c4c(N)ncnc43)CC2)CC1 (centres unmarked) [A419259],N
2,Cc1ccc(C(=O)Nc2ccc(CN3CCN(C)CC3)c(C(F)(F)F)c2)cc1C#Cc1cnc2[nH]ncc2c1 [G2D824],Y
3,O=C(NCCO)c1cccc(-c2cc(Nc3ccc(OC(F)(F)F)cc3)ncn2)c1 [GNF-5],N
4,Oc1cccc(Nc2ccnc3cc(-c4cccc(CN5CCOCC5)c4)sc23)c1 [LCB 03-0110],N
5,CC(C)(C)n1nc(-c2ccc(Cl)cc2)c2c(N)ncnc21 [PP2],Y
